Data published in paper PMC5769767.
These are yes or no findings as the source states them, for the method shown. Binding seen in cells or lysates may run through a third protein. Some entries that bind do so weakly or less than the wild type.

Protein sequences, listed by entry. Tags and fused reporters are not part of them. Lines headed by an entry give the natural chain unless they say otherwise; changes in a name come on top. Residues count along the entry.
UniProt P52948, residues 1-504: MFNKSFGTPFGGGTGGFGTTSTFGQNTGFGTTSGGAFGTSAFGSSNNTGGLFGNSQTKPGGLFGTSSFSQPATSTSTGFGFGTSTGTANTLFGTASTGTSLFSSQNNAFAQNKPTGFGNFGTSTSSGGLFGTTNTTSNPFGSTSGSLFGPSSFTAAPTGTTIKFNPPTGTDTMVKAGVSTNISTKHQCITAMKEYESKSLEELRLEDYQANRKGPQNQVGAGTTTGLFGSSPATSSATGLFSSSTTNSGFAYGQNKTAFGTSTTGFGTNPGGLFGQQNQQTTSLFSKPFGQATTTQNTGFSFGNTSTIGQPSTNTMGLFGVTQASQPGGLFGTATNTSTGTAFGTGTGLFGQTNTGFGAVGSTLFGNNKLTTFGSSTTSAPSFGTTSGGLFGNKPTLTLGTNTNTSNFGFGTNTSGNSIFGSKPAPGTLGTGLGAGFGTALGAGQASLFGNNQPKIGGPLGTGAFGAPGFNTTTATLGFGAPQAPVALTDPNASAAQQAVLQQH
UniProt Q8BFQ4: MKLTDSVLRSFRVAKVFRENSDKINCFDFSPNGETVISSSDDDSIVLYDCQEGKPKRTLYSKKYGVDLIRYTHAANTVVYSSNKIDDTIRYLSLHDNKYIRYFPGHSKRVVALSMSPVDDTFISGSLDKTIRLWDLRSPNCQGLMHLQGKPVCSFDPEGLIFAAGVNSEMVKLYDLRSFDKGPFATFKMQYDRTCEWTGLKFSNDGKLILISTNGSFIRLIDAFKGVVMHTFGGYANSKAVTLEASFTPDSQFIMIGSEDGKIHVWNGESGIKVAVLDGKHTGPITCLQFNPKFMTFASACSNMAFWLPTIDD

B1: Rae1 (protein, UniProt Q8C570 1-368)
chain: MSLFGSTSGFGTGGTSMFGSTTTDNHNPMKDIEVTSSPDDSIGCLSFSPPTLPGNFLIAGSWANDVRCWEVQDSGQTIPKAQQMHTGPVLDVCWSDDGSKVFTASCDKTAKMWDLNSNQAIQIAQHDAPVKTIHWIKAPNYSCVMTGSWDKTLKFWDTRSSNPMMVLQLPERCYCADVIYPMAVVATAERGLIVYQLENQPSEFRRIESPLKHQHRCVAIFKDKQNKPTGFALGSIEGRVAIHYINPPNPAKDNFTFKCHRSNGTNTSAPQDIYAVNGIAFHPVHGTLATVGSDGRFSFWDKDARTKLKTSEQLDQPIAACCFNHNGNIFAYASSYDWSKGHEFYNPQKKNYIFLRNAAEELKPRNKK

Biological target: GFP-tagged human Nup98ΔCTD (amino acids 1–504) (human) (UniProt P52948)
Assay: co-IP; repeat of the GFP-Trap co-IP of GFP-Nup98ΔCTD from RAW 264.7 lysate; Western blot with antibodies against Wdr82, GFP, Rae1 and GAPDH; GFP alone as control

Molecule | binding
Wdr82 (from UniProt Q8BFQ4 1-313) | binds
B1 | binds
